These are yes or no findings as the source states them, for the method shown. In cells and extracts the contact can be indirect. Some binding calls cover weakened binding; strength is not graded here.

Sequences of proteins named here, by UniProt entry; tags and fusion partners are left off. Residues count along the entry.
UniProt P32248, residues 25-378: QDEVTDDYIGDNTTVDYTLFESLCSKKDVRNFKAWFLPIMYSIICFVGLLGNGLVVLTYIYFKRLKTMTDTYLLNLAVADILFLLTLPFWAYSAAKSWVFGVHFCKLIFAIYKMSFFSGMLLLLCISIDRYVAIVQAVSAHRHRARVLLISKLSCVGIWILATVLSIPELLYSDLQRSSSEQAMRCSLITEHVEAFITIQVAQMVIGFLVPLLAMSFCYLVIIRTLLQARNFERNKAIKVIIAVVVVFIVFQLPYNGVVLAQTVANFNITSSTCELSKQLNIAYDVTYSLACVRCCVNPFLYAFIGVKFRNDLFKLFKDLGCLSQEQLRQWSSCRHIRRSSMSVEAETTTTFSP
UniProt P49407: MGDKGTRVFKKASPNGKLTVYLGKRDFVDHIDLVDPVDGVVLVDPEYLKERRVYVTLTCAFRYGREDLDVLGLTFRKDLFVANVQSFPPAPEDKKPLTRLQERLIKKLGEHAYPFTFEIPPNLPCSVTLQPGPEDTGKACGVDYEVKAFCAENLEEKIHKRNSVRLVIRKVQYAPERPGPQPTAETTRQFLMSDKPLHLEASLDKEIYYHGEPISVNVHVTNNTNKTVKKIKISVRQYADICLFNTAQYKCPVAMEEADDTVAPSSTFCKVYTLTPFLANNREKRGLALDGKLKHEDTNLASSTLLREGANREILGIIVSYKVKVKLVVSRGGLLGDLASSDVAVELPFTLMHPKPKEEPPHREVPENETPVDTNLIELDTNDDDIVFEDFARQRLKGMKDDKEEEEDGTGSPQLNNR
UniProt P32121: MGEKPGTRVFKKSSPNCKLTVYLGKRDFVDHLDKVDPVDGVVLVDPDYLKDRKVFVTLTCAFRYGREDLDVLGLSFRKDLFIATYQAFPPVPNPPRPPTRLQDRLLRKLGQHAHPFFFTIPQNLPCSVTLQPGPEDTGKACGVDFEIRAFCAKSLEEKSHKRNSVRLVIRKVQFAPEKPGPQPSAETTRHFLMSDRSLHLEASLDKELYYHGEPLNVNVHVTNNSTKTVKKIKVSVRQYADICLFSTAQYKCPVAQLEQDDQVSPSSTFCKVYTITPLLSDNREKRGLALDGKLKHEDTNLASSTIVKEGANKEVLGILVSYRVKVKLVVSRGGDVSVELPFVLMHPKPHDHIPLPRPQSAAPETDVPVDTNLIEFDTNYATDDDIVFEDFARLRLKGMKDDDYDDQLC

The assay deals with hCCR7-mNeongreen (CCR7 C-terminally tagged with mNeonGreen) (human) (UniProt P32248). Kind of assay: FRET or BRET; NanoBRET in live HEK293A, U87 or CHO-K1 cells transiently co-transfected with CCR7-mNeonGreen (acceptor) and NLuc-β-arrestin (donor); stimulated with CCL19 or CCL21, BRET followed in real time for 25 min; HBSS, 20 mM HEPES, 0.5% FBS, pH 7.4. Background: Bioluminescence resonance energy transfer reports proximity on the nanometre scale.

In the case of “NLuc-Arrβ1(N) (NanoLuc-tagged β-arrestin1) (from UniProt P49407 1-418)”, the binding entry is given as “binds”. The entry for “NLuc-Arrβ2(N) (NanoLuc-tagged β-arrestin2) (from UniProt P32121 1-409)” is “binds”.

For the origin of these results see publication PMC10967792.
